Measured values as given in PubChem BioAssay AID248 (DTP/NCI, 2004).
The list is a part of this screen's results and no random one: it is rich in T/C values a quarter to a half above the control, in often repeated tests (any T/C) and in doses without a T/C. Other doses and runs of a compound stand elsewhere. T/C: endpoint of the treated group in % of that of the vehicle group. Some doses have a count of surviving animals in place of a T/C: the source holds a T/C of zero for them, seemingly a mark for toxic or unscored doses. Some survivor counts are full or nearly so, which does not show that the dose was tolerated: the source hardly ever lists a survival T/C far under the control, and the zero likely stands for such cases as well. Survivors were counted at the toxicity check, usually on the fifth day, unless a day is given; later deaths do not show. Schedule codes are those of the source, read here as Q, the interval in days (D) or hours (H), X, the number of doses. Some doses were run more than once; their values stand side by side, smallest first. Some schedule codes hold Z or #, which are not explained here. For survival time, this PubChem deposit counts one and a half times the control or more as active, and values a quarter to a half above the control carry no call in these data; other NCI protocols may use other cut-offs.

System: L1210 leukemia ip in BDF1 mice, survival T/C
Test: NCI In Vivo Anticancer Drug Screen. Data for tumor model L1210 Leukemia (intraperitoneal) in B6D2F1 (BDF1) mice
Conditions: T/C endpoint: mean survival time, higher T/C = longer survival
[1] = dose: 400.0 mg/kg/injection, schedule: Q01DX009 (ip), vehicle: saline with Tween-80
[2] = dose: 100.0 mg/kg/injection, schedule: Q04DX003 (ip), vehicle: saline
[3] = dose: 200.0 mg/kg/injection, schedule: Q04DX003 (ip), vehicle: saline
[4] = dose: 400.0 mg/kg/injection, schedule: Q01DX009 (ip), vehicle: saline
[5] = dose: 400.0 mg/kg/injection, schedule: Q04DX003 (ip), vehicle: saline
[6] = dose: 400.0 mg/kg/injection, schedule: Q04DX003 (ip), vehicle: saline with Tween-80
[7] = dose: 200.0 mg/kg/injection, schedule: Q01DX009 (ip), vehicle: saline
[8] = dose: 150.0 mg/kg/injection, schedule: Q01DX001 (ip), vehicle: saline
[9] = dose: 300.0 mg/kg/injection, schedule: Q01DX001 (ip), vehicle: saline
[10] = dose: 400.0 mg/kg/injection, schedule: Q01DX001 (ip), vehicle: Klucel (hydroxypropylcellulose) (HPC)
[11] = dose: 400.0 mg/kg/injection, schedule: Q04DX002 (ip), vehicle: Klucel (hydroxypropylcellulose) (HPC)
[12] = dose: 75.0 mg/kg/injection, schedule: Q01DX001 (ip), vehicle: saline

For `Cc1nc2c(NC(=O)C(F)(F)F)nn(C)c2nc1C`, the survivor count [1] was 2 of 6.

With `Nc1nc(N)c2nc(NCc3ccc(C(=O)NC(CCC(=O)O)C(=O)O)cc3)cnc2n1` (centres undefined) the T/C [2] was 94, 95, 117, 120 % of control, the T/C [3] was 95, 109, 110, 116 % of control and the T/C [4] was 127 % of control. The T/C [5] was 111, 114, 126, 132 % of control.

With `O=C(C=C(C(F)(F)F)C(F)(F)F)c1cccs1` the survivor count (dose: 50.0 mg/kg/injection, schedule: Q01DX009 (ip), vehicle: saline) was 1 of 6, the survivor count (dose: 100.0 mg/kg/injection, schedule: Q01DX009 (ip), vehicle: saline) was 2 of 6 and the survivor count [3] was 5 of 6. For the same molecule, the survivor count [5] was 2 of 6.

For `CCSc1nc(N)c(Br)c(Sc2nc(N)nc3nc[nH]c23)n1`, the survivor count (dose: 200.0 mg/kg/injection, schedule: Q01DX Z (ip), vehicle: methylcellulose (MC)) was 6 of 6.

In the case of `Clc1nc2nc(Cl)n(Cl)c2nc1Cl`, the survivor count [1] is reported as 0 of 6.

For `CSc1nnnn1-c1ccccc1`, the survivor count (dose: 200.0 mg/kg/injection, schedule: Q04DX003 (ip), vehicle: acetone) was 6 of 6 and the survivor count [6] was 5 of 6.

`NC(N)=NCCCCCC(=O)O` was tested, and the survivor count [7] was 5 of 6 and the survivor count [4] was 0 of 6 and 1 of 6.

`C[N+](C)(C)c1ccccn1` was tested, and the survivor count [8] was 1 of 6 and the survivor count [9] was 0 of 6.

`Cc1ccc(C(c2ccc(C)c(C)c2)C(O)C(O)C(O)C(O)CO)cc1C` (centres undefined) was tested, and the survivor count [10] was 6 of 6.

For `CC(C)(C)C1CCC(N=C(N)CCl)CC1` (centres undefined), the survivor count (dose: 50.0 mg/kg/injection, schedule: Q04DX002 (ip), vehicle: Klucel (hydroxypropylcellulose) (HPC)) was 1 of 3, the survivor count (dose: 100.0 mg/kg/injection, schedule: Q04DX002 (ip), vehicle: Klucel (hydroxypropylcellulose) (HPC)) was 2 of 3 and the survivor count (dose: 200.0 mg/kg/injection, schedule: Q04DX002 (ip), vehicle: Klucel (hydroxypropylcellulose) (HPC)) was 0 of 3. For the same molecule, the survivor count [11] was 0 of 3.

With `C[n+]1c(-c2ccccc2)c2cc(N)ccc2c2ccccc21` the T/C (dose: 0.5 mg/kg/injection, schedule: Q01DX Z (ip), vehicle: methylcellulose (MC)) was 131 % of control, the T/C (dose: 0.8 mg/kg/injection, schedule: Q01DX Z (ip), vehicle: methylcellulose (MC)) was 130 % of control and the T/C (dose: 4.0 mg/kg/injection, schedule: Q01DX Z (ip), vehicle: methylcellulose (MC)) was 127 % of control. For the same molecule, the T/C (dose: 4.4 mg/kg/injection, schedule: Q01DX Z (ip), vehicle: carboxymethylcellulose (CMC)) was 132 % of control, the T/C (dose: 6.0 mg/kg/injection, schedule: Q01DX Z (ip), vehicle: methylcellulose (MC)) was 129 % of control and the T/C (dose: 6.0 mg/kg/injection, schedule: Q01DX Z (ip), vehicle: saline) was 131 % of control. The T/C (dose: 6.6 mg/kg/injection, schedule: Q01DX Z (ip), vehicle: carboxymethylcellulose (CMC)) was 125 % of control, the T/C (dose: 10.0 mg/kg/injection, schedule: Q01DX Z (ip), vehicle: carboxymethylcellulose (CMC)) was 129 % of control and the T/C (dose: 12.0 mg/kg/injection, schedule: Q01DX Z (ip), vehicle: methylcellulose (MC)) was 127 % of control. The T/C (dose: 12.0 mg/kg/injection, schedule: Q01DX Z (ip), vehicle: saline) was 131 % of control, the T/C (dose: 15.0 mg/kg/injection, schedule: Q01DX Z (ip), vehicle: carboxymethylcellulose (CMC)) was 132 % of control and the T/C (dose: 16.0 mg/kg/injection, schedule: Q01DX Z (ip), vehicle: methylcellulose (MC)) was 126 and 127 % of control. For the same molecule, the T/C (dose: 24.0 mg/kg/injection, schedule: Q01DX Z (ip), vehicle: saline) was 144 % of control, the survivor count (dose: 36.0 mg/kg/injection, schedule: Q01DX Z (ip), vehicle: saline) was 4 of 6 and the survivor count (dose: 54.0 mg/kg/injection, schedule: Q01DX Z (ip), vehicle: saline) was 1 of 6. For the same molecule, the survivor count [12] was 0 of 6, the survivor count (dose: 81.0 mg/kg/injection, schedule: Q01DX Z (ip), vehicle: saline) was 0 of 6 and the survivor count [8] was 0 of 6. For the same molecule, the survivor count [9] was 0 of 6.

In the case of `C1CCC2[N-]CC3CCCCC3[N-]CC3CCCCC3[N-]CC3CCCCC3[N-]CC2C1.CO.[Co+3]` (centres undefined), the survivor count [11] is reported as 1 of 3.

For `COc1ccc2c(c1)CC1c3[nH]c4ccccc4c3CCN1C2` (centres undefined), the survivor count [10] was 0 of 6.

`NC(N)=NCCCC(N)C(=O)NCCCCCCNC(=O)C(N)CCCN=C(N)N` (centres undefined) was tested, and the survivor count (dose: 300.0 mg/kg/injection, schedule: Q01DX Z (ip), vehicle: saline) was 2 of 6.

In the case of `CCCCCCCCCCCCCCCCOC(=O)C[n+]1cccc(C(N)=O)c1`, the survivor count [5] is reported as 2 of 6.

With `COc1ccccc1C(C#N)NCCCNC(C#N)c1ccccc1OC` (centres undefined) the survivor count (dose: 40.0 mg/kg/injection, schedule: Q01DX001 (ip), vehicle: saline) was 1 of 6, the survivor count [12] was 0 of 6 and the survivor count [8] was 0 of 6. For the same molecule, the survivor count [9] was 0 of 6.

In the case of `COc1ccc2c(c1)N(CCCN(C)C)c1ccccc1S2`, the survivor count (dose: 150.0 mg/kg/injection, schedule: Q04DX003 (ip), vehicle: saline) is reported as 0 of 4 and the survivor count (dose: 300.0 mg/kg/injection, schedule: Q04DX003 (ip), vehicle: saline) is reported as 0 of 4.

For `COc1ccc(/C=N/NC(=O)CNC(=O)NCc2ccccc2)cc1`, the survivor count (dose: 400.0 mg/kg/injection, schedule: Q01DX009 (ip), vehicle: Klucel (hydroxypropylcellulose) (HPC)) was 6 of 6.

With `Cc1ncc(CO)c(COCCC(C)C)c1O` the survivor count (dose: 400.0 mg/kg/injection, schedule: Q04DX002 (ip), vehicle: saline) was 0 of 3.

For `COC(CC[P+](c1ccccc1)(c1ccccc1)c1ccccc1)(C(=O)c1ccccc1)c1ccccc1` (centres undefined), the survivor count (dose: 75.0 mg/kg/injection, schedule: Q01DX001 (ip), vehicle: carboxymethylcellulose (CMC)) was 0 of 6, the survivor count (dose: 150.0 mg/kg/injection, schedule: Q01DX001 (ip), vehicle: carboxymethylcellulose (CMC)) was 0 of 6 and the survivor count (dose: 300.0 mg/kg/injection, schedule: Q01DX001 (ip), vehicle: carboxymethylcellulose (CMC)) was 0 of 6.

`C[n+]1ccc2cc(N)c3c4ccccc4sc3c2c1` was tested, and the survivor count (dose: 6.25 mg/kg/injection, schedule: Q01DX009 (ip), vehicle: saline with Tween-80) was 5 of 6, the survivor count (dose: 12.5 mg/kg/injection, schedule: Q01DX009 (ip), vehicle: saline with Tween-80) was 3 of 6 and the survivor count (dose: 25.0 mg/kg/injection, schedule: Q01DX009 (ip), vehicle: saline with Tween-80) was 3 of 6 and 5 of 6. For the same molecule, the survivor count (dose: 50.0 mg/kg/injection, schedule: Q01DX009 (ip), vehicle: saline with Tween-80) was 0 of 6, the survivor count (dose: 100.0 mg/kg/injection, schedule: Q04DX003 (ip), vehicle: saline with Tween-80) was 3 of 6 and the survivor count (dose: 200.0 mg/kg/injection, schedule: Q04DX003 (ip), vehicle: saline with Tween-80) was 1 of 6. The survivor count [6] was 0 of 6.

In the case of `CC(=O)C[P+](c1ccccc1)(c1ccccc1)c1ccccc1`, the survivor count [2] is reported as 3 of 6, the survivor count [3] is reported as 0 of 6 and the survivor count [5] is reported as 0 of 6.

With `Cc1cccc(-n2c(N)cc(=O)[nH]c2=S)n1` the survivor count [7] was 0 of 6.

For `C=CCN1C2C=C(c3ccccc3)CC1CCC2` (centres undefined), the survivor count (dose: 50.0 mg/kg/injection, schedule: Q04DX003 (ip), vehicle: Klucel (hydroxypropylcellulose) (HPC)) was 0 of 6, the survivor count (dose: 100.0 mg/kg/injection, schedule: Q04DX003 (ip), vehicle: Klucel (hydroxypropylcellulose) (HPC)) was 0 of 6 and the survivor count (dose: 200.0 mg/kg/injection, schedule: Q04DX003 (ip), vehicle: Klucel (hydroxypropylcellulose) (HPC)) was 0 of 6. The survivor count (dose: 400.0 mg/kg/injection, schedule: Q04DX003 (ip), vehicle: Klucel (hydroxypropylcellulose) (HPC)) was 0 of 6.

In the case of `O=C1CN(CCN2CC(=O)NC2=S)C(=S)N1`, the survivor count (dose: 400.0 mg/kg/injection, schedule: Q04DX002 (ip), vehicle: saline with Tween-80) is reported as 0 of 3.

For `O=C(COc1ccc(Cl)c(Cl)c1)NCc1ccc[n+](Cc2ccc(S(=O)(=O)F)c(Cl)c2)c1`, the survivor count [3] was 2 of 6 and the survivor count [5] was 0 of 6.
